# Patent US20250283871A1, “COMPOSITIONS AND METHODS FOR MODULATING THE INTERACTION BETWEEN SS18-SSX FUSION ONCOPROTEIN AND NUCLEOSOMES” (Dana-Farber Cancer Institute, Inc., priority 2020, published 2025)
# B1: ZRANB2 (protein, UniProt O95218 1-330, looked up)
# Zinc finger Ran-binding …: MSTKNFRVSDGDWICPDKKCGNVNFARRTSCNRCGREKTTEAKMMKAGGTEIGKTLAEKSRGLFSANDWQCKTCSNVNWARRSECNMCNTPKYAKLEERTGYGGGFNERENVEYIEREESDGEYDEFGRKKKKYRGKAVGPASILKEVEDKESEGEEEDEDEDLSKYKLDEDEDEDDADLSKYNLDASEEEDSNKKKSNRRSRSKSRSSHSRSSSRSSSPSSSRSRSRSRSRSSSSSQSRSRSSSRERSRSRGSKSRSSSRSHRGSSSPRKRSYSSSSSSPERNRKRSRSRSSSSGDRKKRRTRSRSPERRHRSSSGSSHSGSRSSSKKK
# B2: SRSF9 (protein, UniProt Q13242 1-221, looked up)
# Serine/arginine-rich splicing …: MSGWADERGGEGDGRIYVGNLPTDVREKDLEDLFYKYGRIREIELKNRHGLVPFAFVRFEDPRDAEDAIYGRNGYDYGQCRLRVEFPRTYGGRGGWPRGGRNGPPTRRSDFRVLVSGLPPSGSWQDLKDHMREAGDVCYADVQKDGVGMVEYLRKEDMEYALRKLDDTKFRSHEGETSYIRVYPERSTSYGYSRSRSGSRGRDSPYQSRGSPHYFSPFRPY
# B3: TOMM22 (protein, UniProt Q9NS69 2-142, looked up)
# Mitochondrial import receptor …: AAAVAAAGAGEPQSPDELLPKGDAEKPEEELEEDDDEELDETLSERLWGLTEMFPERVRSAAGATFDLSLFVAQKMYRFSRAALWIGTTSFMILVLPVVFETEKLQMEQQQQLQQRQILLGPNTGLSGGMPGALPSLPGKI
# B4: THRAP3 (protein, UniProt Q9Y2W1 2-955, looked up)
# Thyroid hormone …: SKTNKSKSGSRSSRSRSASRSRSRSFSKSRSRSRSLSRSRKRRLSSRSRSRSYSPAHNRERNHPRVYQNRDFRGHNRGYRRPYYFRGRNRGFYPWGQYNRGGYGNYRSNWQNYRQAYSPRRGRSRSRSPKRRSPSPRSRSHSRNSDKSSSDRSRRSSSSRSSSNHSRVESSKRKSAKEKKSSSKDSRPSQAAGDNQGDEAKEQTFSGGTSQDTKASESSKPWPDATYGTGSASRASAVSELSPRERSPALKSPLQSVVVRRRSPRPSPVPKPSPPLSSTSQMGSTLPSGAGYQSGTHQGQFDHGSGSLSPSKKSPVGKSPPSTGSTYGSSQKEESAASGGAAYTKRYLEEQKTENGKDKEQKQTNTDKEKIKEKGSFSDTGLGDGKMKSDSFAPKTDSEKPFRGSQSPKRYKLRDDFEKKMADFHKEEMDDQDKDKAKGRKESEFDDEPKFMSKVIGANKNQEEEKSGKWEGLVYAPPGKEKQRKTEELEEESFPERSKKEDRGKRSEGGHRGFVPEKNFRVTAYKAVQEKSSSPPPRKTSESRDKLGAKGDFPTGKSSFSITREAQVNVRMDSFDEDLARPSGLLAQERKLCRDLVHSNKKEQEFRSIFQHIQSAQSQRSPSELFAQHIVTIVHHVKEHHFGSSGMTLHERFTKYLKRGTEQEAAKNKKSPEIHRRIDISPSTFRKHGLAHDEMKSPREPGYKAEGKYKDDPVDLRLDIERRKKHKERDLKRGKSRESVDSRDSSHSRERSAEKTEKTHKGSKKQKKHRRARDRSRSSSSSSQSSHSYKAEEYTEETEEREESTTGFDKSRLGTKDFVGPSERGGGRARGTFQFRARGRGWGRGNYSGNNNNNSNNDFQKRNREEEWDPEYTPKSKKYYLHDDREGEGSDKWVSRGRGRGAFPRGRGRFMFRKSSTSPKWAHDKFSGEEGEIEDDESGTENREEKDNIQPTTE
# B5: NOP9 (protein, UniProt Q86U38 1-636, looked up)
# Nucleolar protein 9: MGQGPRSPHKVGRRFPAGGKRGRGAKGSGRPLPGRKRQPWPPPDGRSEPAPDSHPHLSPEALGYFRRALSALKEAPETGEERDLMVHNIMKEVETQALALSTNRTGSEMLQELLGFSPLKPLCRVWAALRSNLRTVACHRCGVHVLQSALLQLPRLLGSAAEEEEEEEEDGKDGPTETLEELVLGLAAEVCDDFLVYCGDTHGSFVVRTLLQVLGGTILESERARPRGSQSSEAQKTPAQECKPADFEVPETFLNRLQDLSSSFLKDIAVFITDKISSFCLQVALQVLHRKLPQFCAHLCNAVIGYLSTRGSSVDGSPLLLFLRDQTSSRLLEQVLLVLEPPRLQSLFEEHLQGQLQTLAAHPIANFPLQRLLDAVTTPELLSPVFEELSPVLEAVLAQGHPGVVIALVGACRRVGAYQAKVLQLLLEAFHCAEPSSRQVACVPLFATLMAYEVYYGLTEEEGAVPAEHQVAMAAARALGDVTVLGSLLLQHLLHFSTPGLVLRSLGALTGPQLLSLAQSPAGSHVLDAILTSPSVTRKLRRRVLQNLKGQYVALACSRHGSRVLDAIWSGAALRARKEIAAELGEQNQELIRDPFGHHVARNVALTTFLKRREAWEQQQGAVAKRRRALNSILED
# B6: ZNF512 (protein, UniProt Q96ME7 1-567, looked up)
# Zinc finger protein 512: MSSRLGAVPATSGPTTFKQQRSTRIVGAKNSRTQCSIKDNSFQYTIPHDDSLSGSSSASSCEPVSDFPASFRKSTYWMKMRRIKPAATSHVEGSGGVSAKGKRKPRQEEDEDYREFPQKKHKLYGRKQRPKTQPNPKSQARRIRKEPPVYAAGSLEEQWYLEIVDKGSVSCPTCQAVGRKTIEGLKKHMENCKQEMFTCHHCGKQLRSLAGMKYHVMANHNSLPILKAGDEIDEPSERERLRTVLKRLGKLRCMRESCSSSFTSIMGYLYHVRKCGKGAAELEKMTLKCHHCGKPYRSKAGLAYHLRSEHGPISFFPESGQPECLKEMNLESKSGGRVQRRSAKIAVYHLQELASAELAKEWPKRKVLQDLVPDDRKLKYTRPGLPTFSQEVLHKWKTDIKKYHRIQCPNQGCEAVYSSVSGLKAHLGSCTLGNFVAGKYKCLLCQKEFVSESGVKYHINSVHAEDWFVVNPTTTKSFEKLMKIKQRQQEEEKRRQQHRSRRSLRRRQQPGIELPETELSLRVGKDQRRNNEELVVSASCKEPEQEPVPAQFQKVKPPKTNHKRGRK
# B7: DDX51 (protein, UniProt Q8N8A6 2-666, looked up)
# ATP-dependent RNA helicase …: ALFYVARYPGPDAAAAAGPEGAEAGAHGRARALLERLQSRARERQQQREPAQTEAAASTEPATRRRRRPRRRRRVNDAEPGSPEAPQGKRRKADGEDAGAESNEEAPGEPSAGSSEEAPGEPSAGSSEEAPGERSTSASAEAAPDGPALEEAAGPLVPGLVLGGFGKRKAPKVQPFLPRWLAEPNCVRRNVTEDLVPIEDIPDVHPDLQKQLRAHGISSYFPVQAAVIPALLESAACGFLVGRGGYRPSDLCVSAPTGSGKTLAFVIPVVQALLSRVVCHIRALVVLPTKELAQQVSKVFNIYTDATPLRVSLVTGQKSLAKEQESLVQKTADGYRCLADIVVATPGRLVDHIDQTPGFSLQQLRFLIIDEADRMIDSMHQSWLPRVVAAAFQSEDPADPCALLQRRQAQAVTAASTCCPQMPLQKLLFSATLTQNPEKLQQLGLHQPRLFSTGLAHRGLEDTDGDGDSGKYAFPVGLTHHYVPCSLSSKPLVVLHLVLEMGFSRVLCFTNSRENSHRLFLLVQAFGGVDVAEFSSRYGPGQRRMILKQFEQGKIQLLISTDATARGIDVQGVELVVNYDAPQYLRTYVHRVGRTARAGKTGQAFTLLLKVQERRFLRMLTEAGAPELQRHELSSKLLQPLVPRYEEALSQLEESVKEERKQRAA
# B8: MYO1B (protein, UniProt O43795 1-1136, looked up)
# Unconventional myosin-Ib: MAKMEVKTSLLDNMIGVGDMVLLEPLNEETFINNLKKRFDHSEIYTYIGSVVISVNPYRSLPIYSPEKVEEYRNRNFYELSPHIFALSDEAYRSLRDQDKDQCILITGESGAGKTEASKLVMSYVAAVCGKGAEVNQVKEQLLQSNPVLEAFGNAKTVRNDNSSRFGKYMDIEFDFKGDPLGGVISNYLLEKSRVVKQPRGERNFHVFYQLLSGASEELLNKLKLERDFSRYNYLSLDSAKVNGVDDAANFRTVRNAMQIVGFMDHEAESVLAVVAAVLKLGNIEFKPESRVNGLDESKIKDKNELKEICELTGIDQSVLERAFSFRTVEAKQEKVSTTLNVAQAYYARDALAKNLYSRLFSWLVNRINESIKAQTKVRKKVMGVLDIYGFEIFEDNSFEQFIINYCNEKLQQIFIELTLKEEQEEYIREDIEWTHIDYFNNAIICDLIENNTNGILAMLDEECLRPGTVTDETFLEKLNQVCATHQHFESRMSKCSRFLNDTSLPHSCFRIQHYAGKVLYQVEGFVDKNNDLLYRDLSQAMWKASHALIKSLFPEGNPAKINLKRPPTAGSQFKASVATLMKNLQTKNPNYIRCIKPNDKKAAHIFNEALVCHQIRYLGLLENVRVRRAGYAFRQAYEPCLERYKMLCKQTWPHWKGPARSGVEVLFNELEIPVEEYSFGRSKIFIRNPRTLFKLEDLRKQRLEDLATLIQKIYRGWKCRTHFLLMKKSQIVIAAWYRRYAQQKRYQQTKSSALVIQSYIRGWKARKILRELKHQKRCKEAVTTIAAYWHGTQARRELRRLKEEARNKHAIAVIWAYWLGSKARRELKRLKEEARRKHAVAVIWAYWLGLKVRREYRKFFRANAGKKIYEFTLQRIVQKYFLEMKNKMPSLSPIDKNWPSRPYLFLDSTHKELKRIFHLWRCKKYRDQFTDQQKLIYEEKLEASELFKDKKALYPSSVGQPFQGAYLEINKNPKYKKLKDAIEEKIIIAEVVNKINRANGKSTSRIFLLTNNNLLLADQKSGQIKSEVPLVDVTKVSMSSQNDGFFAVHLKEGSEAASKGDFLFSSDHLIEMATKLYRTTLSQTKQKLNIEISDEFLVQFRQDKVCVKFIQGNQKNGSVPTCKRKNNRLLEVAVP
# Test system: BAF complex subunits and histone proteins
# Assay: Mass spectrometry proteomics of purified HA-SS18 WT and HA-SS18-SSX1 complexes (Tables 5A-5E)
# Parameters: species or system human
# Details: for Total / Unique: HA-SS18SSX1_CHR_peptides; for Total: total peptides of the identified protein; for Unique: unique peptides of the identified protein
# [1] = HA-SS18WT_CHR_peptides: protein identified in HA-SS18 WT BAF complex purification from nuclease-treated solubilized chromatin (CHR), HEK-293T
# [2] = HA-SS18SSX1_NE_peptides: protein co-purified with HA-SS18-SSX1 BAF complexes from soluble nuclear extract (NE), HEK-293T cells
# [3] = HA-SS18WT_NE_peptides: HA-SS18 WT complexes purified from nuclear extract (NE), HEK-293T, label = protein identified (Gene Symbol)
# [4] = HA-SS18SSX1_CHR_peptides: protein identified in the HA-SS18-SSX1 purification from solubilized chromatin (CHR), HEK-293T
# [5] = HA-SS18WT_NE_peptides: proteins co-purified with HA-SS18 WT from nuclear extract (NE), HEK-293T
# [6] = HA-SS18WT_CHR_peptides: HA-SS18 WT purification from nuclease-treated solubilized chromatin (CHR), HEK-293T, label = protein identified
# [7] = HA-SS18SSX1 purification, NE (soluble nuclear extract) fraction, HEK-293T, peptides per identified protein
Molecule,Total,Unique,Total (total peptides) [1],Unique (unique peptides) [1],Total (peptides) [3],Unique (peptides) [3],other results
B1,4,3,–,–,–,–,–
B2,4,4,1,1,–,–,–
B3,4,3,2,2,2,2,Total (peptides) [2]: 2; Unique (peptides) [2]: 2
B4,3,1,–,–,–,–,Total (total peptides) [4]: 45; Unique (unique peptides) [4]: 22; Total (peptides) [2]: 1; Unique (peptides) [2]: 1
B5,4,4,2,2,–,–,Total (peptides) [5]: 1; Unique (peptides) [5]: 1
B6,4,4,–,–,–,–,Total (peptides) [6]: 4; Unique (peptides) [6]: 4
B7,4,4,–,–,8,7,Total (total peptides) [7]: 8; Unique (unique peptides) [7]: 7; Total (peptides) [6]: 7; Unique (peptides) [6]: 6
B8,4,4,1,1,11,11,–
